For at least one compound, name, drawing or mass did not settle the structure.
Test system: NAPRT expression in PPM1Dtrnc. cells
Assay: NAPRT immunoblot after DNA demethylating agents
Type: cell-based, human
Details: varying doses, 72 hrs
Procedure: PPM1D^trnc. astrocytes were treated with 50 µg/mL cycloheximide or 1 μM MG132 (both Sigma) for the indicated amount of time. Cells were then washed, pelleted, and lyzed for subsequent immunoblotting approaches, as described above. Quantification of immunoblot intensity was calculated using ImageJ software, and consisted of multiple (n=3) blots. Irradiation of cells was performed using an X-RAD KV irradiator (Precision X-ray), and treatment consisted of an unfractionated, 10 Gy dose. PPM1D inhibitor treatment with GSK2830371 (Selleckchem), consisted of 50 nM treatment, 24 hours prior to IR. FK866 (Selleckchem), GPP78 (Tocris Bioscience), STF118804 (Tocris Bioscience), STF31 (Tocris Bioscience), 5-azacytidine (Selleckchem), and Decitabine (Selleckchem) were dissolved in DMSO and used for treatment as indicated.

In the case of `Nc1ncn([C@H]2C[C@H](O)[C@@H](CO)O2)c(=O)n1` [decitabine], the “Reversal of NAPRT gene silencing” value is reported as “failed to reverse”.
